Assay results as given in patent US7922998B2, “Gastrin releasing peptide compounds” (Bracco Imaging S.p.A., priority 2003, dated 2011).

Molecular target: T1, NMB-R (Rattus norvegicus, UniProt P24053)
T1 construct: C6, an NMB-R expressing rodent glioblastoma cell line; host or cells: C6 glioma cells, intact and plated
T1 sequence (P24053 1-390): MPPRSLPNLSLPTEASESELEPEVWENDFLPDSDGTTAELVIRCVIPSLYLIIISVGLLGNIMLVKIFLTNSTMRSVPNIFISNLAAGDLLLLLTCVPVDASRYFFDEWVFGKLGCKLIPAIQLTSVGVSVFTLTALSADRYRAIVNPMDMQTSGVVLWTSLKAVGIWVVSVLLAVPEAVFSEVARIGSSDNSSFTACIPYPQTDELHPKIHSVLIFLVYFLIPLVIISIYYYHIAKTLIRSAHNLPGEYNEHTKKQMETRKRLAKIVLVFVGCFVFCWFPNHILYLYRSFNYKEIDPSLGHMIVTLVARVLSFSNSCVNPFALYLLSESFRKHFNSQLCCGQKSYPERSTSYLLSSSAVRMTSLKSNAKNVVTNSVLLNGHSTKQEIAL
Assay: Competition with 125I-NMB for NMB-R in C6 cells (Example LX)
Assay type: binding, rodent
Settings: Table 10; class cut off 10x the IC50 of [Tyr4]-BBN with 125I-NMB on C6 cells; yes or dash

## CSCC[C@H](NC(=O)[C@H](CC(C)C)NC(=O)[C@H](Cc1c[nH]cn1)NC(=O)CNC(=O)[C@@H](NC(=O)[C@H](C)NC(=O)[C@H](Cc1c[nH]c2ccccc12)NC(=O)[C@H](CCC(N)=O)NC(=O)c1ccc(CNC(=O)CN2CCN(CC(=O)O)CCN(CC(=O)O)CCN(CC(=O)O)CC2)cc1)C(C)C)C(N)=O [Compound L71, 4-[[[[4,7,10-Tris(carboxymethyl)-1,4,7,10-tetraazacyclododec-1-yl]acetyl]amino]methyl]benzoyl-L-glutaminyl-L-tryptophyl-L-alanyl-L-valyl-glycyl-L-histidyl-L-leucyl-L-methioninamide]
  GRP-R & NMB-R (binds both with similar affinity): yes
